PubChem BioAssay AID1053208 – Peter MacCallum Cancer Centre | 2014
The whole screen tested about 17,000 reagents; below is an unselected part. 788 of them (4.7%) count as active. 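Calls rest on z-score classes alone; an extra cut-off of viability at most 70% of control was not applied to them.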 Some reagents were tested in more than one well and are listed for each. Not all columns of the deposit are shown.

- Aim: 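Synthetic lethal interactions between gene loss and doxorubicin in osteosarcoma cells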 (primary screen)
- Cells: mouse osteosarcoma cells, early-passage culture from an engineered mouse model of fibroblastic bone tumour
- Knock-down reagent: siRNA pool against mouse genes, 40 nM
- Time to read-out: about 120 h (48 h before drug, then 72 h with drug)
- Conditions: doxorubicin 100 nM for 72 h, roughly 30-40% inhibitory dose
- Measured: 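Viability read as ATP luminescence after 72 h of 100 nM doxorubicin or none, duplicate wells averaged, scaled to non-targeting siRNA, then expressed as robust z-scores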
- Scale: viability z-score with doxorubicin: higher = more viable cells under doxorubicin; viability z-score without drug: higher = more viable cells with knock-down alone
- Call rule: 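a pool counts as active when its viability z-score with doxorubicin is -2 or below and its z-score without drug lies between -2 and 2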

target,combined z-score class,viability z-score with doxorubicin,viability z-score without drug,Call
Svil,no change with or without drug,0.67,-0.67,inactive
Sema4f,no change with or without drug,-0.45,-1.01,inactive
Slc10a3,no change with or without drug,0.79,1.18,inactive
Apool,no change with or without drug,1.24,1.52,inactive
Tpk1,no change with or without drug,-1.57,0,inactive
Mlf2,high cell count without drug only,0.22,2.53,inactive
4921504E06Rik,high cell count with doxorubicin only,2.02,1.85,inactive
Cd34,no change with or without drug,-1.57,0.17,inactive
Lmtk2,no change with or without drug,0.22,1.52,inactive
C030032C09RIK,no change with or without drug,-0.45,-1.18,inactive
Or1e1,no change with or without drug,-1.12,0.17,inactive
Cdkl1,low cell count without drug only,-1.12,-2.19,inactive
Or1e1c,no change with or without drug,-0.22,-1.01,inactive
Atl3,no change with or without drug,-1.35,-0.17,inactive
Brcc3,no change with or without drug,0.9,1.52,inactive
Myocd,no change with or without drug,1.35,0.84,inactive
Hamp2,no change with or without drug,1.57,0.17,inactive
A430010J10Rik,no change with or without drug,-0.45,-1.52,inactive
Nol11,low cell count with and without drug,-3.37,-5.56,inactive
Slc30a6,high cell count with doxorubicin only,2.02,0.51,inactive
Or52n20,no change with or without drug,0,-0.17,inactive

3 entries from above, set out differently.
{"target": "Svil", "combined z-score class": "no change with or without drug", "viability z-score with doxorubicin": 0.67, "viability z-score without drug": -0.67, "Call": "inactive"}
{"target": "Sema4f", "combined z-score class": "no change with or without drug", "viability z-score with doxorubicin": -0.45, "viability z-score without drug": -1.01, "Call": "inactive"}
{"target": "Slc10a3", "combined z-score class": "no change with or without drug", "viability z-score with doxorubicin": 0.79, "viability z-score without drug": 1.18, "Call": "inactive"}

The listing continues:
target,combined z-score class,viability z-score with doxorubicin,viability z-score without drug,Call
Tafazzin,no change with or without drug,-0.9,-1.18,inactive
Nat1,no change with or without drug,1.35,0,inactive
Camk1g,no change with or without drug,-0.45,-1.18,inactive
Mbd3l1,no change with or without drug,1.57,0.17,inactive
Cep128,high cell count without drug only,1.57,2.87,inactive
Arhgef39,no change with or without drug,0,0.34,inactive
Notch4,no change with or without drug,0.9,-0.51,inactive
Bphl,no change with or without drug,0.67,-0.84,inactive
H1f7,no change with or without drug,-1.35,0.34,inactive
Gpr174,no change with or without drug,0.9,-1.18,inactive
Banp,no change with or without drug,1.24,0.34,inactive
Sgk3,no change with or without drug,0.45,1.52,inactive
Ubl3,high cell count without drug only,-0.34,2.87,inactive
Erc2,no change with or without drug,-0.67,0.51,inactive
Dbi,no change with or without drug,0.79,0.17,inactive
Vmn1r93,no change with or without drug,-0.79,-0.84,inactive
Tlx3,no change with or without drug,1.46,0.17,inactive
Mettl25,no change with or without drug,0.11,0.17,inactive
Grk3,no change with or without drug,-0.67,0.51,inactive
Grk3,no change with or without drug,0.56,-0.17,inactive
4930565A21RIK,no change with or without drug,-1.01,0,inactive
H2-M10.4,no change with or without drug,0.22,0.17,inactive
Zfp11,no change with or without drug,-0.67,-0.84,inactive
Ing3,no change with or without drug,0.34,-0.84,inactive
Tnfrsf4,no change with or without drug,0.11,0.17,inactive
Or9k2,no change with or without drug,-0.22,0,inactive
Plekhj1,no change with or without drug,1.12,1.85,inactive
Cox5b,no change with or without drug,0.9,1.85,inactive
Serp1,no change with or without drug,0.9,-0.51,inactive
Kpna3,no change with or without drug,0,-1.35,inactive
Prcc,no change with or without drug,0.45,1.35,inactive
Chrm2,no change with or without drug,-1.35,0.67,inactive
Lao1,no change with or without drug,-1.12,0.84,inactive
Trf,no change with or without drug,-0.56,-0.17,inactive
Cotl1,no change with or without drug,1.12,0.34,inactive
Epb41,no change with or without drug,0.45,-0.51,inactive
Rarres1,no change with or without drug,1.12,0.34,inactive
Spink5,no change with or without drug,0.22,0.34,inactive
Or10q1,low cell count without drug only,0.22,-2.19,inactive
Aoc1l3,no change with or without drug,0.11,0.51,inactive
Mrgpra2b,low cell count with doxorubicin only,-2.02,-1.85,active
Krt76,no change with or without drug,-0.11,0.67,inactive
